Results taken from article PMC11873038.
No constants are given. Whether binding was seen depends on the method and setting. In cells and extracts the contact can be indirect. Some entries that bind do so weakly or less than the wild type.

The chains behind the UniProt entries cited, without tags or fusion partners. Residues count along the entry.
UniProt P78556, residues 27-96: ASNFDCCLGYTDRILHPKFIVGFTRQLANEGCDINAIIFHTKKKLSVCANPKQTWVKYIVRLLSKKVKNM

T1: proteinase 3 (PR3), endogenously secreted by THP-1 cells (human (endogenous in THP-1)) (UniProt P24158)
T1 sequence: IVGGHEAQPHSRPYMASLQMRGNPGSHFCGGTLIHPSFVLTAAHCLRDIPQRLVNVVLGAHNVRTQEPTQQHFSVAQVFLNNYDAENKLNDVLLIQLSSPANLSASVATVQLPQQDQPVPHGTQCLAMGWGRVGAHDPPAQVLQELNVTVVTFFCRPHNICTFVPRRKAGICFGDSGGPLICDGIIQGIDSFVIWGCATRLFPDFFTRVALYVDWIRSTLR


Target: T1, proteinase 3 (PR3), endogenously secreted by THP-1 cells (human (endogenous in THP-1))
Assay: co-IP + peptide or protein array; co-immunoprecipitation of endogenously secreted PR3 from conditioned medium of LPS-stimulated (CM-LPS) and nonstimulated (CM-CTRL) THP-1 cells, followed by a human cytokine array

Molecule | binding
CCL20 in conditioned medium of THP-1 cells (from UniProt P78556 27-96) | binds
interleukin (IL)-32 in conditioned medium of THP-1 cells (protein, UniProt P24001 31-234) AWVSACDTEDTVGHLGPWRDKDPALWCQLCLSSQHQAIERFYDKMQNAESGRGQVMSSLAELEDDFKEGYLETVAAYYEEQHPELTPLLEKERDGLRCRGNRSPVPDVEDPATEEPGESFCDKVMRWFQAMLQRLQTWWHGVLAWVKEKVVALVHAVQALWKQFQSFCCSLSELFMSSFQSYGAPRGDKEELTPQKCSEPQSSK | binds
